This passage reports cell number change and AC50 results from PubChem BioAssay AID2685 (National Center for Advancing Translational Sciences (NCATS), 2010).

Broadly, the AC50 is the concentration giving half of the maximal activity seen. Read a high AC50 as activity only at high concentration.

The test is described as follows: qHTS Assay for Lipid Storage Modulators in Drosophila S3 Cells.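 As to cell number change: cells counted by Cell Tracker Red CMTPX staining in the red channel.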 The following applies: BODIPY lipid droplet fluorescence, 18-24 h; for cell number change: measured here: cell count max response, cells fed with added oleic acid. The essentials:
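Laser-scanning cytometry quantifies lipid droplet accumulation (500–530 nm total intensity; droplet/cell object ratio) in oleic acid-fed (400 uM added) Drosophila S3 cells treated with a concentration series. 20 uM Triacsin C defined 100% inhibition.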

Where [1] appears, read: measured here: cell number channel AC50, cells fed with added oleic acid.
[2] abbreviates: measured here: lipid fluorescence (Fed channel) AC50, cells fed with added oleic acid.

Structures are written as SMILES. This is one part of the list. Shown are side measurements of this screen, not its main read-out; they come without a call. Compounds called inactive in the main read-out are mostly missing here. Potencies come from curve fits of mixed quality, noted in brackets.

For `Cc1cccc(NC(=O)c2ccc([N+](=O)[O-])s2)c1C`, the cell number change was 4.6%.

As for `CCOc1cc(-c2c(C#N)c(=O)[nH]c3c2c(C)nn3-c2ccc(F)cc2)ccc1O`, under setting [1], the AC50 was 0.461 µM [falling, single point].

Turning to `O=C(NCCCc1ccccc1)c1ccncc1`, the cell number change is -3.47%.

In the case of `Cc1ccc(-n2nc(C)c(C3C(C#N)=C(N)OC4=C3C(=O)CCC4)c2Cl)cc1` (stereo not drawn), the cell number change was -12.1%. Also, the AC50 under setting [2] was 1.84 µM [rising, single point].

Turning to `COc1ccc(CNC(=O)Cn2nc(C(F)(F)F)c(Br)c2C)cc1`, the AC50 under setting [2] is 0.58 µM [rising, single point].

`O=C(CCN1CCN(Cc2ccccc2)CC1)Nc1cccc(Cl)c1`: the cell number change is -14.6%. Besides, under setting [2], the AC50 was 0.461 µM [rising, full curve, poor fit].

For the molecule `CCCCCCC(=O)N1C/C=C\C(c2ccc(OC)cc2)N(Cc2ccc(F)cc2)C(=O)[C@H]1Cc1ccccc1` (stereo partly drawn), the cell number change was -55.8%. For the same molecule, the AC50 under setting [1] is 29.1 µM [falling, single point]. For the same molecule, under setting [2], the AC50 was 29.1 µM [falling, single point].

As for `Cc1ccc(NC(=O)CSc2nn(-c3ccccc3)c(=S)s2)cc1S(=O)(=O)N(C)C`, the cell number change is -12.6%. Also, the concentration at half-maximal activity (AC50) under setting [2] was 3.26 µM [falling, single point].

For `O=C(CN1CCN(c2cccc(C(F)(F)F)c2)CC1)NCc1ccccc1`, the cell number change was -22.9%. The AC50 under setting [2] is 0.116 µM [falling, full curve, poor fit].

Turning to `CS(=O)(=O)Nc1ccccc1C(=O)Nc1ccccc1C(=O)N1CCCC1`, the cell number change was -15.3%.

In the case of `CC(=O)N1CC[n+]2c(-c3ccc(Cl)cc3)csc21`, under setting [2], the AC50 is 7.31 µM [rising, partial curve].

In the case of `Cc1csc(NC(=O)c2cc3c(C)nn(Cc4ccccc4Cl)c3s2)n1`, the cell number change was -1.38%. Moreover, the half-maximal activity concentration (AC50) under setting [1] is 0.0517 µM [rising, partial curve]. For the same molecule, the AC50 under setting [2] is 0.231 µM [rising, partial curve].

As to `O=C(NCCCn1ccnc1)c1ccc(-c2ccccc2)cc1`, the cell number change was -1.3%. Moreover, under setting [2], the AC50 is 0.092 µM [rising, full curve].

As for `Cn1c(SCC(=O)c2ccc(F)cc2)nc2cccnc21`, the cell number change stood at 2.16%.

Regarding `CCC1(C)NC(=O)N(CC(=O)N2CCN(c3cccc(Cl)c3)CC2)C1=O` (stereo not drawn), the cell number change is -23%. For the same molecule, under setting [2], the concentration at half-maximal activity (AC50) was 0.731 µM [falling, full curve, poor fit].

As to `CSc1c(CC(=O)Nc2ccccc2)n(Cc2ccccc2)c2ccccc12`, the cell number change is -2.52%. The AC50 under setting [1] is 3.26 µM [falling, partial curve].

For the molecule `O=C(CN1CCOCC1)N/N=C/c1ccc(-c2cccc(Cl)c2Cl)o1`, under setting [2], the AC50 is 1.03 µM [rising, partial curve].

As to `CC1CCN(Cc2nnc(-c3cccc(Br)c3)o2)CC1`, the cell number change is -7.91%. For the same molecule, the AC50 under setting [2] is 29.1 µM [falling, single point].

For the molecule `COc1cccc(Cn2cnc3c(N)c(C)c(C)cc32)c1`, the cell number change is 99.9%. In addition, the AC50 under setting [1] is 3.26 µM [rising, full curve]. Further, the AC50 under setting [2] is 25.9 µM [rising, single point].

As for `COc1ccc(C(=O)Nc2ccc(S(=O)(=O)N3CCCCC3)cc2)cc1`, the cell number change is 0.592%. In addition, under setting [2], the AC50 is 11.6 µM [falling, single point].

As for `COc1ccc(NC(=O)c2cc(CN3C(=O)c4ccccc4C3=O)ccc2OC)cn1`, the cell number change turned out to be 70.2%. Further, the AC50 under setting [1] is 0.259 µM [rising, full curve, poor fit]. Further, under setting [2], the AC50 is 29.1 µM [rising, single point].

Consider `CN(C)N=Nc1nc2c([nH]1)c(=O)n(C)c(=O)n2C`, for which the AC50 under setting [2] was 29.1 µM [rising, single point].

`CCCS(=O)(=O)c1c(S(=O)(=O)CCC)c2c(C(N)=O)cccn2c1C(=O)c1ccc(F)cc1`: the cell number change amounted to 25.9%.

Take `NC(=O)/C(=C/c1ccco1)NC(=O)/C=C/c1ccccc1`: the AC50 under setting [2] was 20.6 µM [rising, partial curve, poor fit].

With `CC(C)COC(=O)c1ccc(N2C(=O)c3ccccc3C2=O)cc1`, the cell number change was found to be 1.02%. The AC50 under setting [2] is 0.0259 µM [rising, full curve, poor fit].

`CC(C)CCOc1ccc(C(=O)NCCC(=O)N2CCOCC2)cc1`: the cell number change is 28.6%. Also, the AC50 under setting [2] was 16.4 µM [rising, single point].

`Oc1c(Cl)cc(CN2CCOCC2)c2cccnc12`: the cell number change is -57.7%. For the same molecule, the AC50 under setting [1] was 23.1 µM [falling, partial curve, poor fit]. Moreover, under setting [2], the half-maximal activity concentration (AC50) was 32.6 µM [falling, single point].

As to `CC(=O)N1CCN(c2ccc(NC(=O)c3cc(Cl)ccc3Cl)cc2)CC1`, the cell number change came out at 1.17%. Besides, under setting [2], the AC50 is 14.6 µM [rising, single point].

As to `COc1ccccc1C(=O)CC(=O)c1ccccc1`, the cell number change is -17.1%. Further, the AC50 under setting [2] is 32.6 µM [falling, single point].

Turning to `Cc1c(C#N)c(N)nc2c3c(sc12)NC(=O)CC3c1ccc(Cl)cc1` (stereo not drawn), the cell number change was -51.9%. Under setting [1], the AC50 is 29.1 µM [falling, single point]. In addition, under setting [2], the AC50 is 29.1 µM [falling, single point].

For `CC(C)(C)c1cc(C(=O)CCN2CCOCC2)cc(C(C)(C)C)c1O`, the AC50 under setting [2] is 6.51 µM [falling, full curve].

Take `S=C1NCN(Cc2ccco2)CN1`: the cell number change was -15.6%. Also, under setting [2], the half-maximal activity concentration (AC50) was 2.59 µM [falling, full curve].

For `CCOC(=O)C1CCCN(C(=O)c2cccc(S(=O)(=O)N(Cc3ccccc3)c3ccccc3OC)c2)C1` (stereo not drawn), the cell number change was -26.4%. In addition, the AC50 under setting [2] is 18.4 µM [falling, single point].

As to `COc1ccccc1NC(=O)CSc1nnnn1C1CCCCC1`, the cell number change was -2.56%. In addition, under setting [2], the AC50 is 5.17 µM [rising, single point].

In the case of `O=[N+]([O-])c1ccc(C2CCCC/C2=N\OCc2cccc(F)c2)c([N+](=O)[O-])c1` (stereo not drawn), the cell number change worked out at 12.5%.

`Nc1c(NC2CCCCC2)c2ccccc2oc1=O`: the cell number change is -6.29%.

With `Oc1c(Br)cc(Br)cc1CNc1cccc2cccnc12`, the cell number change is -1.1%. The AC50 under setting [2] is 20.6 µM [rising, partial curve].

Turning to `CCCOc1ccc(-c2nnc(N)s2)cc1`, the AC50 is 0.92 µM [rising, partial curve] under setting [1] and 1.03 µM [rising, partial curve] under setting [2].

For the molecule `Cc1ccc(N/C=C(/C#N)c2ccsc2)cc1C`, the cell number change was determined as 31.7%. Under setting [1], the AC50 was 9.2 µM [rising, partial curve, poor fit].

For the molecule `O=C(c1cn2ccccc2n1)N1CCCC(Nc2ccc(F)c(F)c2)C1` (stereo not drawn), the cell number change is 20.5%. For the same molecule, the AC50 under setting [2] is 23.1 µM [rising, single point].

Regarding `CC1CCCCC12NC(=O)N(CC(=O)NCc1ccco1)C2=O` (stereo not drawn), the cell number change worked out at 11%. Moreover, the AC50 under setting [2] is 0.00411 µM [rising, full curve, poor fit].

In the case of `Cc1ccccc1CN(C)CC(=O)Nc1ccccc1Oc1ccccc1`, the cell number change worked out at 6.71%. The concentration at half-maximal activity (AC50) under setting [2] is 32.6 µM [rising, single point].

For the molecule `O=c1[nH]c(=O)c2nc3c4ccccc4c4ccccc4c3nc2[nH]1`, the cell number change was -62.6%. Besides, the AC50 under setting [1] was 29.1 µM [falling, single point]. Further, under setting [2], the half-maximal activity concentration (AC50) is 29.1 µM [falling, single point].

Take `Cc1ccc(-c2nnn(CC(=O)Nc3ccccc3-c3ccccc3)n2)c(-n2cnnn2)c1`: the cell number change was -21.6%.

As to `Cc1c(C(=O)O)sc2nc(/C=C/c3cccc(F)c3)[nH]c(=O)c12`, the cell number change is -0.709%. Also, the AC50 under setting [2] is 6.51 µM [falling, single point].

Turning to `NC(=O)SCC(=O)Nc1cccc(Cl)c1`, the cell number change came to 15%. The half-maximal activity concentration (AC50) under setting [2] was 6.51 µM [falling, single point].

As for `C/C(=N/NC(=O)c1ccc(Cn2cccn2)o1)c1cccc(NC(=O)c2ccncc2)c1`, the cell number change is -21.5%. The AC50 under setting [2] is 0.411 µM [rising, full curve].

Turning to `Nc1nc(Cl)c2ncn(C3OC(CO)C(O)C3O)c2n1` (stereo not drawn), the cell number change turned out to be 1.58%. The AC50 under setting [2] was 29.1 µM [falling, single point].

On to `CC1CC(=O)Nc2ccccc2N1S(=O)(=O)c1ccc(Cl)cc1` (stereo not drawn), for which the cell number change is -4.33%. In addition, the concentration at half-maximal activity (AC50) under setting [2] was 0.731 µM [falling, full curve].

As for `CN(C)S(=O)(=O)N(CCN1CCOCC1)Cc1ccccc1F`, the AC50 under setting [2] was 29.1 µM [falling, single point].

For `O=C1CCC(=O)N1c1ccc(S(=O)(=O)N2CCCC2)cc1`, the cell number change was -45.8%. Besides, the AC50 under setting [1] was 23.1 µM [falling, single point]. Besides, the AC50 under setting [2] is 32.6 µM [falling, single point].

As for `Cc1sc(-c2ccncc2)nc1OC(=O)c1cc(Cl)cc(Cl)c1`, the cell number change is -55%. In addition, the AC50 under setting [1] was 2.59 µM [falling, full curve]. Moreover, under setting [2], the AC50 was 20.6 µM [falling, single point].

Take `C=CCN1C=C/C(=C\C=C(C#N)C#N)c2ccccc21`: the cell number change is -20.4%. Further, the AC50 under setting [2] was 3.66 µM [falling, full curve].

On to `CCOc1cc(/C=C(\C#N)C(N)=O)ccc1OS(=O)(=O)c1ccccc1`, for which the cell number change is -4.76%. Also, the AC50 under setting [2] was 0.731 µM [falling, partial curve].

As for `Cc1cccc(N2CCN(C(=O)NC(C)c3ccc(F)c(F)c3)CC2)c1C` (stereo not drawn), the cell number change was -9.72%. The AC50 under setting [2] was 29.1 µM [falling, single point].

Turning to `CCc1ccc(S(=O)(=O)NCc2cn3cccc(C)c3n2)s1`, the cell number change was -22.8%. Besides, under setting [2], the AC50 is 23.1 µM [falling, partial curve, poor fit].

In the case of `CCCc1nnc(SCC(=O)N2CCOCC2)n1Cc1ccco1`, the cell number change came out at 1.41%. For the same molecule, the AC50 under setting [2] is 29.1 µM [falling, single point].

In the case of `NC(=O)Nc1ccc(F)cc1`, the cell number change is -14.5%. Also, the AC50 under setting [1] is 0.0231 µM [falling, full curve, poor fit]. Besides, under setting [2], the AC50 is 0.00411 µM [falling, full curve, poor fit].

With `O=C(Nc1ccc(-c2cn3c(n2)SCC3)cc1)c1ccc2ccccc2n1`, the cell number change is -39.4%. Also, under setting [1], the AC50 was 2.06 µM [falling, partial curve]. In addition, under setting [2], the half-maximal activity concentration (AC50) was 29.1 µM [falling, single point].

On to `COCc1c(C(=O)OCC(=O)NCCN2C(=O)CSC2=O)oc2ccccc12`, for which the cell number change worked out at 0.165%. For the same molecule, under setting [2], the AC50 was 2.59 µM [falling, single point].

For `FC(F)(F)c1cnc(NNC(=S)Nc2ccccc2Cl)c(Cl)c1`, the cell number change is -65.7%. For the same molecule, the AC50 under setting [1] was 23.1 µM [falling, partial curve]. Moreover, the AC50 under setting [2] is 20.6 µM [falling, partial curve].
